These are yes or no findings as the source states them, for the method shown. Binding seen in cells or lysates may run through a third protein. Some binding calls cover weakened binding; strength is not graded here. Tags and fused reporters may be left off the sequences shown.
Each substance was assayed against T1, LCMV Z WT with a C-terminal streptavidin binding peptide (SBP) tag (LCMV) (UniProt P18541) (assay: pull-down).
T1 sequence: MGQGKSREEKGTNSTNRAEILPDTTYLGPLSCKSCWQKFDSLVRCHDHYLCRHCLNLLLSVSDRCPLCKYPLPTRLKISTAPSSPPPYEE

The chains behind the UniProt entries cited, without tags or fusion partners.
UniProt P46934: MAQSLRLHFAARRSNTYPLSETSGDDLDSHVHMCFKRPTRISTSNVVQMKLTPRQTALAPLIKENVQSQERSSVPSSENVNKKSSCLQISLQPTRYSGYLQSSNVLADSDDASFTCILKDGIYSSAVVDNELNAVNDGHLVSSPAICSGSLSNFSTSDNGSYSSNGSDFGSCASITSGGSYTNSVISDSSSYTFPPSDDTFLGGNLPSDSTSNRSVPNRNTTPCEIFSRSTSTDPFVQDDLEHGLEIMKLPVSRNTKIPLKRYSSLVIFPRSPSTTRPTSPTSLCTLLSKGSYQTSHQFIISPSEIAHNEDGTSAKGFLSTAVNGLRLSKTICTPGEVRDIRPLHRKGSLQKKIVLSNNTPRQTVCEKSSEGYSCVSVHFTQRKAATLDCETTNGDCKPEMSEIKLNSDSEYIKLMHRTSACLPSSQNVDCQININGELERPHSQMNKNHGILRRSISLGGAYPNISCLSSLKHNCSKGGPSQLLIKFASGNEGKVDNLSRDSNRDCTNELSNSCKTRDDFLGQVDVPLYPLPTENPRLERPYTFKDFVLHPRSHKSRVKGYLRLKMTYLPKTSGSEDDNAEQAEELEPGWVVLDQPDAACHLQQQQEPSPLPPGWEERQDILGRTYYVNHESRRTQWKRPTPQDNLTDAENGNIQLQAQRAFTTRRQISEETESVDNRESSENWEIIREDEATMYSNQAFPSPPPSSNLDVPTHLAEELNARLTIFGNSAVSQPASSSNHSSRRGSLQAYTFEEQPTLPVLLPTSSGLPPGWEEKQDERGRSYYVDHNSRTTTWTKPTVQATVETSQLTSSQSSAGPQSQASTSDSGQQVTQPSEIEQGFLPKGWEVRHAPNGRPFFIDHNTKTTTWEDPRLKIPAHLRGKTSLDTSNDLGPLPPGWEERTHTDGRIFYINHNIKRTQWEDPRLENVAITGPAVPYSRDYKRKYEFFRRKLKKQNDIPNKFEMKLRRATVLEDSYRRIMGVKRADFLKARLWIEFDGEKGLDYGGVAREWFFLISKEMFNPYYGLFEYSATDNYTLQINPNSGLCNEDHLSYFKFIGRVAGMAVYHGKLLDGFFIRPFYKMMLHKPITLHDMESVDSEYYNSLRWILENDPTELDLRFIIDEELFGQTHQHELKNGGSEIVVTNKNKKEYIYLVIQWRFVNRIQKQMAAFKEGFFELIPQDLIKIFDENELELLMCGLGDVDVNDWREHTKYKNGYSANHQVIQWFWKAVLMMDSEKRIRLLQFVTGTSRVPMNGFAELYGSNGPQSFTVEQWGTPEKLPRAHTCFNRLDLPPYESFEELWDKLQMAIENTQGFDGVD

| Substance | binding |
| --- | --- |
| ATP5B (from UniProt P06576 48-529) | binds |
| IMPDH2 (from UniProt P12268 1-514) (enzyme) | binds |
| Nedd4 (from UniProt P46934 1-1319) (enzyme) | binds |

— article PMC6874086
